Experimental data reported in publication PMC5440412.
No constants are given. Whether binding was seen depends on the method and setting. Binding seen in cells or lysates may run through a third protein. A yes stands for co-enrichment or nearness to the bait. Other partners may have been found.

B1: Tropomodulin-3 (protein, UniProt Q9NYL9 1-352)
chain: MALPFRKDLEKYKDLDEDELLGNLSETELKQLETVLDDLDPENALLPAGFRQKNQTSKSTTGPFDREHLLSYLEKEALEHKDREDYVPYTGEKKGKIFIPKQKPVQTFTEEKVSLDPELEEALTSASDTELCDLAAILGMHNLITNTKFCNIMGSSNGVDQEHFSNVVKGEKILPVFDEPPNPTNVEESLKRTKENDAHLVEVNLNNIKNIPIPTLKDFAKALETNTHVKCFSLAATRSNDPVATAFAEMLKVNKTLKSLNVESNFITGVGILALIDALRDNETLAELKIDNQRQQLGTAVELEMAKMLEENTNILKFGYQFTQQGPRTRAANAITKNNDLVRKRRVEGDHQ
B2: EF hand containing protein D2 (protein, UniProt Q96C19 1-240)
chain: MATDELATKLSRRLQMEGEGGGETPEQPGLNGAAAAAAGAPDEAAEALGSADCELSAKLLRRADLNQGIGEPQSPSRRVFNPYTEFKEFSRKQIKDMEKMFKQYDAGRDGFIDLMELKLMMEKLGAPQTHLGLKNMIKEVDEDFDSKLSFREFLLIFRKAAAGELQEDSGLCVLARLSEIDVSSEGVKGAKSFFEAKVQAINVSSRFEEEIKAEQEERKKQAEEMKQRKAAFKELQSTFK
B3: Myosin-Id (protein, UniProt O94832 1-1006)
chain: MAEQESLEFGKADFVLMDTVSMPEFMANLRLRFEKGRIYTFIGEVVVSVNPYKLLNIYGRDTIEQYKGRELYERPPHLFAIADAAYKAMKRRSKDTCIVISGESGAGKTEASKYIMQYIAAITNPSQRAEVERVKNMLLKSNCVLEAFGNAKTNRNDNSSRFGKYMDINFDFKGDPIGGHINNYLLEKSRVIVQQPGERSFHSFYQLLQGGSEQMLRSLHLQKSLSSYNYIHVGAQLKSSINDAAEFRVVADAMKVIGFKPEEIQTVYKILAAILHLGNLKFVVDGDTPLIENGKVVSIIAELLSTKTDMVEKALLYRTVATGRDIIDKQHTEQEASYGRDAFAKAIYERLFCWIVTRINDIIEVKNYDTTIHGKNTVIGVLDIYGFEIFDNNSFEQFCINYCNEKLQQLFIQLVLKQEQEEYQREGIPWKHIDYFNNQIIVDLVEQQHKGIIAILDDACMNVGKVTDEMFLEALNSKLGKHAHFSSRKLCASDKILEFDRDFRIRHYAGDVVYSVIGFIDKNKDTLFQDFKRLMYNSSNPVLKNMWPEGKLSITEVTKRPLTAATLFKNSMIALVDNLASKEPYYVRCIKPNDKKSPQIFDDERCRHQVEYLGLLENVRVRRAGFAFRQTYEKFLHRYKMISEFTWPNHDLPSDKEAVKKLIERCGFQDDVAYGKTKIFIRTPRTLFTLEELRAQMLIRIVLFLQKVWRGTLARMRYKRTKAALTIIRYYRRYKVKSYIHEVARRFHGVKTMRDYGKHVKWPSPPKVLRRFEEALQTIFNRWRASQLIKSIPASDLPQVRAKVAAVEMLKGQRADLGLQRAWEGNYLASKPDTPQTSGTFVPVANELKRKDKYMNVLFSCHVRKVNRFSKVEDRAIFVTDRHLYKMDPTKQYKVMKTIPLYNLTGLSVSNGKDQLVVFHTKDNKDLIVCLFSKQPTHESRIGELVGVLVNHFKSEKRHLQVNVTNPVQCSLHGKKCTVSVETRLNQPQPDFTKNRSGFILSVPGN

biological target: Leucocyte surface antigen, CD47 (human (endogenous in K562 cells, erythroblasts and erythrocytes)); test: affinity purification with mass spectrometry; total CD47 immunoprecipitated with BRIC126 on protein G beads from 1% NP-40 lysates of up to 15 million K562 cells, expanding (EXP) and T0 erythroblasts and mature erythrocytes; IgG isotype control; hits absent from or more than 2-fold over the IgG control; Nano LC-MS/MS

| binding | Binder |
| --- | --- |
| binds | B1 |
| binds | B2 |
| binds | B3 |
